Laboratory results: patent US20190350964A1, “ANTI-CANCER COMPOUNDS AND USES THEREOF” (NATIONAL UNIVERSITY OF SINGAPORE, priority 2016, published 2019)

Sequences of proteins named here, by UniProt entry; tags and fusion partners are left off. Residues count along the entry.
UniProt P36551, 111-454 limits assumed: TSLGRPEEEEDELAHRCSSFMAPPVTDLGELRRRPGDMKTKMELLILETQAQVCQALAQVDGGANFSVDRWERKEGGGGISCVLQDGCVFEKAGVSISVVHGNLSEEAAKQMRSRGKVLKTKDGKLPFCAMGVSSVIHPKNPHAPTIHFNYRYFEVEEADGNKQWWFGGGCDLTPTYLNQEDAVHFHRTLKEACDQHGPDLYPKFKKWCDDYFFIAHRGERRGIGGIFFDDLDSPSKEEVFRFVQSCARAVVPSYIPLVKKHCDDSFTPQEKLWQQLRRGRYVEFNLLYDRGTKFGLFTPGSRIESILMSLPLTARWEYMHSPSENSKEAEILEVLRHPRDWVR
UniProt Q92841, whole entry: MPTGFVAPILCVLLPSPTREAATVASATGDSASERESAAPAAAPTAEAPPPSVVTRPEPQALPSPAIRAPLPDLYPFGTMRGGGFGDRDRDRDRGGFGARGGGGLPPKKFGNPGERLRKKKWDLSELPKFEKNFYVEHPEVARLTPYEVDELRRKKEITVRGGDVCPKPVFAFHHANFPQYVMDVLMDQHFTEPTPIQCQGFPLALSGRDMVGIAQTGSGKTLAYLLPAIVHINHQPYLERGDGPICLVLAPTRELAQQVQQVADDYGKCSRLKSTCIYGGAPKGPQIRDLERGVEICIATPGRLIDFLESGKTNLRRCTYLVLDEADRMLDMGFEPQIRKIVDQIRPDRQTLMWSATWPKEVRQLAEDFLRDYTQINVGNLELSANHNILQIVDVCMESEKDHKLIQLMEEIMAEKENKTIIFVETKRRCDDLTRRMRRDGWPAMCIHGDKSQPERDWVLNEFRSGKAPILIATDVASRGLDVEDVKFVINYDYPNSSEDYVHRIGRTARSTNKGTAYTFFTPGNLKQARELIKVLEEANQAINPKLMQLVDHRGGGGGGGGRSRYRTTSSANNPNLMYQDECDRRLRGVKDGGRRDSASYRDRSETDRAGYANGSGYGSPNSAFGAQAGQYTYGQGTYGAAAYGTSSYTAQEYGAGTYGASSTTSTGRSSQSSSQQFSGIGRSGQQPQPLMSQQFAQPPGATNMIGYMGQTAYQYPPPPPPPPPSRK
UniProt Q8N0Z6, whole entry: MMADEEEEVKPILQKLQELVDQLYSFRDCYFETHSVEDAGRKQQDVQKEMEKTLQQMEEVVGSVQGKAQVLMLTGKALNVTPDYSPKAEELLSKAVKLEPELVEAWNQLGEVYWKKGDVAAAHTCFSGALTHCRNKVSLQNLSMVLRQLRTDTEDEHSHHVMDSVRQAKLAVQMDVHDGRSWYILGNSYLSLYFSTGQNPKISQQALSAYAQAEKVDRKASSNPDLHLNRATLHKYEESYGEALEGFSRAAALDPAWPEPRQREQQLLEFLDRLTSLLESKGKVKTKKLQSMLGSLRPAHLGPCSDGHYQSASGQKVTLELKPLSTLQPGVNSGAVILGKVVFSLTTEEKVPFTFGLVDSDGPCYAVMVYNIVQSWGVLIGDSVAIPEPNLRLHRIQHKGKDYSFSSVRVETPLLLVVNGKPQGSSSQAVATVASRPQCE
UniProt Q9HBL8, whole entry: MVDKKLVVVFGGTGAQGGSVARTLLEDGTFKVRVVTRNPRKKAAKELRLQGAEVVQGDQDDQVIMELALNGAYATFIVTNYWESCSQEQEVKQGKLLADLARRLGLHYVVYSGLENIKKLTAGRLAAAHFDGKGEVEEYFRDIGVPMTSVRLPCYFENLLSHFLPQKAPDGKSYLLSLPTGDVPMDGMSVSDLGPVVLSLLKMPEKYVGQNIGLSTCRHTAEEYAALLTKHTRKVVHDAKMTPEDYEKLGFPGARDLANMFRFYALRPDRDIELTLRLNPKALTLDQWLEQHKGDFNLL
UniProt P36969, whole entry: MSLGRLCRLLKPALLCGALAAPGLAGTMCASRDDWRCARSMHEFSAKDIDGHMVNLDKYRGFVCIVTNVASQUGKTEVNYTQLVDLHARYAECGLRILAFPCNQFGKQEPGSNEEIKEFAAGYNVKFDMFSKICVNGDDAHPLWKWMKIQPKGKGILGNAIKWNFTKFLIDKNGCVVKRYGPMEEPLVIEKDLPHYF
UniProt Q13011, 34-328 limits assumed: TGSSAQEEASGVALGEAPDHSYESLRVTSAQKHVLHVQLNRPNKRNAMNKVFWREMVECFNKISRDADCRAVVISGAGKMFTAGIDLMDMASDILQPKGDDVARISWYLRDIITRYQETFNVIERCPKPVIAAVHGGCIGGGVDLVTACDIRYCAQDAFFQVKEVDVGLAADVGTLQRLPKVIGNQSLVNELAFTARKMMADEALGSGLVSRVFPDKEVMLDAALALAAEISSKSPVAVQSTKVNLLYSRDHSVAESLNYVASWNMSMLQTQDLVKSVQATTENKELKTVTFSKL
UniProt Q10713, 34-525 limits assumed: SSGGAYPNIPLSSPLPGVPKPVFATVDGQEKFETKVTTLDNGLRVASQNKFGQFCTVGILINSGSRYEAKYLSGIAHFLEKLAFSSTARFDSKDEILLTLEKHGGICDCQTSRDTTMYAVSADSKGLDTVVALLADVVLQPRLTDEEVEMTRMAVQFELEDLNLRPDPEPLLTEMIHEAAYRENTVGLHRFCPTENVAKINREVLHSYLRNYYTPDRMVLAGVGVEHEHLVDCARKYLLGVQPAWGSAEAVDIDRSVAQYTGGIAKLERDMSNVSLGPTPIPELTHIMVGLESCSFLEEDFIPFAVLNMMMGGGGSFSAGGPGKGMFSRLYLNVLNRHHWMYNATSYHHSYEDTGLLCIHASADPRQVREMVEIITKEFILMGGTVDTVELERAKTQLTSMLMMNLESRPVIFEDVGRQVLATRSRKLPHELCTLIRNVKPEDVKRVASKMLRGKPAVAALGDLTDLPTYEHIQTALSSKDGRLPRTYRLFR
UniProt Q6AWC2, 1-1216 isoform 6: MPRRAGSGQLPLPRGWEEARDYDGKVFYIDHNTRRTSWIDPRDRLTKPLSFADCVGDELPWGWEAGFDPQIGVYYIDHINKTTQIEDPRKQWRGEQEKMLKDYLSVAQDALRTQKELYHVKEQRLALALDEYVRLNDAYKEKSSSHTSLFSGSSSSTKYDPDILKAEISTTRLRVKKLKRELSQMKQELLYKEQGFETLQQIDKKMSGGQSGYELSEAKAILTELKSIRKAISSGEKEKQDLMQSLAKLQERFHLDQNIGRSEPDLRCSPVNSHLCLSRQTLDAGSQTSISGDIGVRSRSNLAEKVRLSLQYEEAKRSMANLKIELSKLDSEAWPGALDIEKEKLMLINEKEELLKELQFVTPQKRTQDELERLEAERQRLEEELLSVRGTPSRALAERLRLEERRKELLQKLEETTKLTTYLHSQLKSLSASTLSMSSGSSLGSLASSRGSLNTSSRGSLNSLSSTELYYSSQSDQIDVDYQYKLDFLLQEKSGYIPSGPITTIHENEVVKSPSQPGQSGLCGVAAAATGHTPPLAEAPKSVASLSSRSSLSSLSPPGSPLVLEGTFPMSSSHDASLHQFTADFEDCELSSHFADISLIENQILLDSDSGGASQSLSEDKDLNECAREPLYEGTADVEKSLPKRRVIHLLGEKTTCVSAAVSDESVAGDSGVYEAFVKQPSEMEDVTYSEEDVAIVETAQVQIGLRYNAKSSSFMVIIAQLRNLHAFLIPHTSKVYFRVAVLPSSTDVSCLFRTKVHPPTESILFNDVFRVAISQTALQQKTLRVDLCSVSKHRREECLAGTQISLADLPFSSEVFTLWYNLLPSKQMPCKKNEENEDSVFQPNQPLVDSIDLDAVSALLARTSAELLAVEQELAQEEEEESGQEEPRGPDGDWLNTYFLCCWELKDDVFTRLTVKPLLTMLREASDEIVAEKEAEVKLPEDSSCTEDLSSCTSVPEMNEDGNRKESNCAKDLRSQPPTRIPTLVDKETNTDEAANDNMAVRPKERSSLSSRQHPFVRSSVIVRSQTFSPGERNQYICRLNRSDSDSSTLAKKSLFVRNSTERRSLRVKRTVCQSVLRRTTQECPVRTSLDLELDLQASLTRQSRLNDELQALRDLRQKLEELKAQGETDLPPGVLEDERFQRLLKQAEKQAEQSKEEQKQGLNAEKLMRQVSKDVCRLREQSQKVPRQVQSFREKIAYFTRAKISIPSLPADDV
UniProt O75439, 46-489 partner limits assumed: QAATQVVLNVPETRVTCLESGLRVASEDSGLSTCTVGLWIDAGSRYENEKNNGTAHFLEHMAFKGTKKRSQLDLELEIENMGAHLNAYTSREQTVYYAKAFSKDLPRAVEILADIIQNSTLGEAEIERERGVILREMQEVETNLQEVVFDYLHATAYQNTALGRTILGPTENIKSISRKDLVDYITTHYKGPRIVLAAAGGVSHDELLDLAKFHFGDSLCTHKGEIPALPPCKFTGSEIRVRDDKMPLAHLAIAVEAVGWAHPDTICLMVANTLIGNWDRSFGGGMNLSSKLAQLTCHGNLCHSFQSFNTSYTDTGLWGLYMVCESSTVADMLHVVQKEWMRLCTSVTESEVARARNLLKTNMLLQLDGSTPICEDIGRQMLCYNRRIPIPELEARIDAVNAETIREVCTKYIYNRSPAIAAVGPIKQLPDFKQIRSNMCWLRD

Legend:
PIK3IP1 [1] = test: qRT-PCR of PIK3IP1 mRNA in Ras- or Raf-mutant cancer cell lines; details: 2.5 and 5 μM, 24 h; compared with normal cells
[2] = tested on: normal and transformed BJ cells; test: Chemoprotection: a166 pre-treatment followed by a159, paclitaxel or etoposide; details: a166 5 μM 48 h, then paclitaxel or etoposide 48-72 h
PIK3IP1 [3] = test: qRT-PCR and immunoblot of PIK3IP1 in BJ cells; details: 5 μM, 24 h
[4] = tested on: normal and transformed BJ cells; test: a131 SAR analysis: pH3(Ser10) immunoblot, BrdU incorporation, subG1 FACS; details: 5 μM, 48 h
[5] = molecular target: Coproporphyrinogen-III oxidase, mitochondrial (Homo sapiens, UniProt P36551); test: MS-CETSA in normal BJ cell lysates; details: lysate, 100 μM compound
[6] = molecular target: Probable ATP-dependent RNA helicase DDX17 (Homo sapiens, UniProt Q92841); test: MS-CETSA in normal BJ cell lysates; details: Uniprot H3BLZ8; lysate, 100 μM compound
[7] = molecular target: Tetratricopeptide repeat protein 5 (Homo sapiens, UniProt Q8N0Z6); test: MS-CETSA in normal BJ cell lysates; details: lysate, 100 μM compound
[8] = molecular target: NmrA-like family domain-containing protein 1 (Homo sapiens, UniProt Q9HBL8); test: MS-CETSA in normal BJ cell lysates; details: lysate, 100 μM compound
[9] = molecular target: Phospholipid hydroperoxide glutathione peroxidase, mitochondrial (Homo sapiens, UniProt P36969); test: MS-CETSA in normal BJ cell lysates; details: lysate, 100 μM compound
[10] = molecular target: Delta(3,5)-Delta(2,4)-dienoyl-CoA isomerase, mitochondrial (Homo sapiens, UniProt Q13011); test: MS-CETSA in normal BJ cell lysates; details: lysate, 100 μM compound
[11] = molecular target: Mitochondrial-processing peptidase subunit alpha (Homo sapiens, UniProt Q10713); test: MS-CETSA in normal BJ cell lysates; details: lysate, 100 μM compound
[12] = molecular target: Isoform 6 of Protein WWC2 (Homo sapiens, UniProt Q6AWC2); test: MS-CETSA in normal BJ cell lysates; details: Uniprot Q6AWC2-6; lysate, 100 μM compound
Ras/Raf/MEK/ERK pathway = test: Immunoblot of ERK phosphorylation; details: normal BJ cells, 24 h

Question: For `C(=C\c1c[nH]c2ccccc12)/c1cccc2cnccc12`, which “induction of PIK3IP1 in Ras- and Raf-mutant cancer cells” value (PIK3IP1 [1]) is on record?
Answer: significantly attenuated

Question: What about the “protection of normal BJ cells from paclitaxel and etoposide by pre-treatment” value [2] of the same molecule?
Answer: markedly augmented such selectivity by protecting normal BJ cells from chemotherapeutic toxicity

Question: What about the “PIK3IP1 mRNA and protein levels” value (PIK3IP1 [3]; normal BJ cells) of the same molecule?
Answer: up-regulation of PIK3IP1 at both the mRNA and protein levels

Question: And the “PIK3IP1 mRNA expression” value (PIK3IP1 [3]; transformed BJ cells)?
Answer: unresponsive

Question: What about the “Group (a131 SAR analysis)” value [4] of the same molecule?
Answer: Group 2

Question: What about the ED score [5] of the same molecule?
Answer: 0.5715

Question: What about the mean Delta Tm [5] of the same molecule?
Answer: 4.08 °C

Question: And the ED score [6]?
Answer: 0.3454

Question: What about the mean Delta Tm [6] of the same molecule?
Answer: 2.01 °C

Question: And the ED score [7]?
Answer: 0.2802

Question: And the mean Delta Tm [7]?
Answer: 2.11 °C

Question: What about the ED score [8] of the same molecule?
Answer: 0.3484

Question: And the mean Delta Tm [8]?
Answer: 2.67 °C

Question: What about the ED score [9] of the same molecule?
Answer: 0.4563

Question: What about the mean Delta Tm [9] of the same molecule?
Answer: 1.93 °C

Question: What about the ED score [10] of the same molecule?
Answer: 0.543

Question: What about the mean Delta Tm [10] of the same molecule?
Answer: 2.1 °C

Question: And the ED score [11]?
Answer: 0.6182

Question: What about the mean Delta Tm [11] of the same molecule?
Answer: 2.72 °C

Question: And the ED score [12]?
Answer: 0.3774

Question: And the mean Delta Tm [12]?
Answer: 3.47 °C

Question: And the “inhibition of the Ras/Raf/MEK/ERK pathway (ERK phosphorylation)” value (Ras/Raf/MEK/ERK pathway)?
Answer: Neither a131 and a166 treatment nor PI5P4Ks knockdown inhibited

The match of structure and compound is tentative.
